Laboratory results published in PMC4827801.
Results are given in words; binding and its absence hold for the method and conditions named. In cells and extracts the contact can be indirect. Here binding means that the protein was enriched with, or labelled near, the bait; the list need not be complete.

Sequences of proteins named here, by UniProt entry; tags and fusion partners are left off.
UniProt O15379: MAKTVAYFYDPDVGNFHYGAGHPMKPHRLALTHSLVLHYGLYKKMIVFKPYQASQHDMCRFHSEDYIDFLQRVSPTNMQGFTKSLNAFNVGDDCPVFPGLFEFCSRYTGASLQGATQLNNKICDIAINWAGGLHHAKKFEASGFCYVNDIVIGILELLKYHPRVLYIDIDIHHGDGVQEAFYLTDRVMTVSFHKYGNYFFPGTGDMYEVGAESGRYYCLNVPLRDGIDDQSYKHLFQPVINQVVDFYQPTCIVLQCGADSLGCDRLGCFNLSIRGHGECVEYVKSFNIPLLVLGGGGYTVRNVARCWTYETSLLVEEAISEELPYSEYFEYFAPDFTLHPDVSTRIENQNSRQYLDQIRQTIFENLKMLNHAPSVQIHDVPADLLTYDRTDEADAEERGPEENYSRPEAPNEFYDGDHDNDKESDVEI
UniProt O75376: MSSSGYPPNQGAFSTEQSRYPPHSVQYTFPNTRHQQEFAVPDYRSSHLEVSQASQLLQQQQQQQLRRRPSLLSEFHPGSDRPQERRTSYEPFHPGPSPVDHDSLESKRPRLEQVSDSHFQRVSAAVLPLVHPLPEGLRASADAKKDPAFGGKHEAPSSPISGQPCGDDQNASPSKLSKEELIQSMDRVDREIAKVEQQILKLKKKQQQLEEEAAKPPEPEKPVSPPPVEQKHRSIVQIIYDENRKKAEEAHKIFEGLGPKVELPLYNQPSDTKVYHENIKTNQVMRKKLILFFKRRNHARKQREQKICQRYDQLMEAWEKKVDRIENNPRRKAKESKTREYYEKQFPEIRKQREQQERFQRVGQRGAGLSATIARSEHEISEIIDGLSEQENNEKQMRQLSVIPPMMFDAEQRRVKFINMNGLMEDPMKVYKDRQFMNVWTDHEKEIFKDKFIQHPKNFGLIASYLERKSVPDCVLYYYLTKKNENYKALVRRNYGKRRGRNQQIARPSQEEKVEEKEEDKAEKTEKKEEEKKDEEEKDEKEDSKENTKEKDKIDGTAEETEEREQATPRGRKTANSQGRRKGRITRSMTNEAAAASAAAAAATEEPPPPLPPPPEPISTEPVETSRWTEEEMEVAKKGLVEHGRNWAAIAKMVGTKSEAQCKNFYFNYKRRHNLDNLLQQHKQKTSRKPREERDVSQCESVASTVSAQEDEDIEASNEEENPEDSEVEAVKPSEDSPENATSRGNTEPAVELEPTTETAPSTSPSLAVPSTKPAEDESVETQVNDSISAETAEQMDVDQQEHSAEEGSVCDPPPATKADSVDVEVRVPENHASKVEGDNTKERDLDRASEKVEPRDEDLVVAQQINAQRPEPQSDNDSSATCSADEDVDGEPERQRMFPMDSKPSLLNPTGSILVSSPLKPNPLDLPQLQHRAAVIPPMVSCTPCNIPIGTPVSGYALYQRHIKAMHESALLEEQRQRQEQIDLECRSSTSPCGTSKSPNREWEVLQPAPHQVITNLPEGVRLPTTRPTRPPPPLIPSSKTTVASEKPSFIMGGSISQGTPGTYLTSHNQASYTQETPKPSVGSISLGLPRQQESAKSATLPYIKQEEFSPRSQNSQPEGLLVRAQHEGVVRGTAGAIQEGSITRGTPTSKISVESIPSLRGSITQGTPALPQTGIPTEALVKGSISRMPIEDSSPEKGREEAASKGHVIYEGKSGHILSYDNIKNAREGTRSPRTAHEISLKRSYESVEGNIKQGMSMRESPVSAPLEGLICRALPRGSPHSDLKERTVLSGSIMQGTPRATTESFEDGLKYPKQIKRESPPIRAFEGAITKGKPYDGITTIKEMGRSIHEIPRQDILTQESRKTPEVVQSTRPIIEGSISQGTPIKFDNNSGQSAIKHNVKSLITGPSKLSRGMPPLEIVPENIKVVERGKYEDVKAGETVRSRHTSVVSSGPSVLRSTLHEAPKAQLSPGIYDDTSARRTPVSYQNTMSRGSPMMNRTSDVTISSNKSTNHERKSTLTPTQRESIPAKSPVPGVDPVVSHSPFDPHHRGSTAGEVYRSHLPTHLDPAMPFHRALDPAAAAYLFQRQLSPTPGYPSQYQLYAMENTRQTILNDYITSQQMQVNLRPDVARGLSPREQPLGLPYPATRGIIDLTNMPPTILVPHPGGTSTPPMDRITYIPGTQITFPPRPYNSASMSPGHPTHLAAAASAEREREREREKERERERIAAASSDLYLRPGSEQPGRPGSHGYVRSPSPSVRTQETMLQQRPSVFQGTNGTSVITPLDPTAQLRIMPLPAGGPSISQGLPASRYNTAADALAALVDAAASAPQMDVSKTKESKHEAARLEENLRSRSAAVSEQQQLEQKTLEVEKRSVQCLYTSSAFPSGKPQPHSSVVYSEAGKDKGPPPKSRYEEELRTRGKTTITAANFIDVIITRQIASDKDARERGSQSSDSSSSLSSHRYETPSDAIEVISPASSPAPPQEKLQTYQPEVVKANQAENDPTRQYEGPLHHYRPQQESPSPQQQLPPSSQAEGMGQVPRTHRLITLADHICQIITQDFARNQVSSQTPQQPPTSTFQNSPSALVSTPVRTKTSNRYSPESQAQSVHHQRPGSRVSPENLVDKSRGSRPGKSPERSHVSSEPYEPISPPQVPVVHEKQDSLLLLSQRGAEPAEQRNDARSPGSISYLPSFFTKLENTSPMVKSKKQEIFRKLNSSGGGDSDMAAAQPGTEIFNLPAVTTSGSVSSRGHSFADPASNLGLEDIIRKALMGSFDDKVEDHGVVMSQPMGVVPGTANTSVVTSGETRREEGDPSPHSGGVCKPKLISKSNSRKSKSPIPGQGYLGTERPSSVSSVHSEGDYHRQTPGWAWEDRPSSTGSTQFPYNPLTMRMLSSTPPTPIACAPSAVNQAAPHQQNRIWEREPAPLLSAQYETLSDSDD

B1: TBL1 (transducin-beta like 1) (protein, UniProt O60907 1-577)
chain: MTELAGASSSCCHRPAGRGAMQSVLHHFQRLRGREGGSHFINTSSPRGEAKMSITSDEVNFLVYRYLQESGFSHSAFTFGIESHISQSNINGTLVPPAALISILQKGLQYVEAEISINEDGTVFDGRPIESLSLIDAVMPDVVQTRQQAFREKLAQQQASAAAAAAAATAAATAATTTSAGVSHQNPSKNREATVNGEENRAHSVNNHAKPMEIDGEVEIPSSKATVLRGHESEVFICAWNPVSDLLASGSGDSTARIWNLNENSNGGSTQLVLRHCIREGGHDVPSNKDVTSLDWNTNGTLLATGSYDGFARIWTEDGNLASTLGQHKGPIFALKWNRKGNYILSAGVDKTTIIWDAHTGEAKQQFPFHSAPALDVDWQNNTTFASCSTDMCIHVCRLGCDRPVKTFQGHTNEVNAIKWDPSGMLLASCSDDMTLKIWSMKQEVCIHDLQAHNKEIYTIKWSPTGPATSNPNSNIMLASASFDSTVRLWDIERGVCTHTLTKHQEPVYSVAFSPDGKYLASGSFDKCVHIWNTQSGNLVHSYRGTGGIFEVCWNARGDKVGASASDGSVCVLDLRK

Assays:
[1] = biological target: HPV16 E8^E2C-HA (Human papillomavirus 16) (UniProt P0DKA0); assay: affinity purification with mass spectrometry; anti-HA immunoprecipitates (magnetic anti-HA beads) from 3 x 10^8 stable 293T cells expressing HA-tagged E8^E2C, against 293T/pIRES-puro empty vector control; NanoLC-MS/MS
[2] = biological target: HPV31 E8^E2C-HA (Human papillomavirus 31); assay: as above

Molecule | binding [1] | binding [2]
HDAC3 (histone deacetylase 3) (from UniProt O15379 1-428) (enzyme) | binds | 
NCoR (from UniProt O75376 1-2440) | binds | 
B1 | binds | binds
